The assay deals with T1, FIP37, yeast two-hybrid fusion (Arabidopsis thaliana) (UniProt Q9ZSZ8).
T1 sequence: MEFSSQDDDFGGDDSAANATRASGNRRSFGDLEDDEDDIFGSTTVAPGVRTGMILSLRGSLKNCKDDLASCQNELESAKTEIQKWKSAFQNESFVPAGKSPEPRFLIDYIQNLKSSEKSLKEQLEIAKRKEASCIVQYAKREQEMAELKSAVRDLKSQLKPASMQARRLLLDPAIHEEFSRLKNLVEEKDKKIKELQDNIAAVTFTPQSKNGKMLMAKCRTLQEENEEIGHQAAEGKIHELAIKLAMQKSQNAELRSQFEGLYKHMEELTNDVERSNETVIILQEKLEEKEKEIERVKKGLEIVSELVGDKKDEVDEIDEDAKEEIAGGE
Kind of assay: two-hybrid; yeast two-hybrid, fusions to activation domain (pDEST22) and binding domain (pDEST32); growth on media lacking histidine with 3-AT (-LTH) or lacking adenine (-LTA), recorded after 4 d; three technical and three biological replicates.

Sequences of proteins named here, by UniProt entry; tags and fusion partners are left off.
UniProt O82486: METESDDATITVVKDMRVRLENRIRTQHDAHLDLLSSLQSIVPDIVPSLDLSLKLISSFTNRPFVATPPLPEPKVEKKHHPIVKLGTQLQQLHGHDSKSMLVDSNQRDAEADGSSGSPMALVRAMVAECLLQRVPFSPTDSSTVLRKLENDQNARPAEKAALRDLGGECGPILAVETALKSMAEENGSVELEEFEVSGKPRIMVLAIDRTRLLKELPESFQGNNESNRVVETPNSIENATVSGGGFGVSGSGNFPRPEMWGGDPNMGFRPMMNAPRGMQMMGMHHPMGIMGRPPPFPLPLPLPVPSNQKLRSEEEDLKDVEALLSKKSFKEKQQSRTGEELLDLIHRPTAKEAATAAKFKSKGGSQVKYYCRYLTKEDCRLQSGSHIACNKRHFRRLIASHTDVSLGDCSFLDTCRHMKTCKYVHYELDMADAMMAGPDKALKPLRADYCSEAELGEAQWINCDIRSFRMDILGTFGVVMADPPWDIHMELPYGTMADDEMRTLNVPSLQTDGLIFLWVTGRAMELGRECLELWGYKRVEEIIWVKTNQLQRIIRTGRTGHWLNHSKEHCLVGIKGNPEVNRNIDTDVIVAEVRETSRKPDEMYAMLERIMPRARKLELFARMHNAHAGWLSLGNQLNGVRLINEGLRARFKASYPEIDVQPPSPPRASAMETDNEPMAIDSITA

These are yes or no findings as the source states them, for the method shown. Some binding calls cover weakened binding; strength is not graded here. Sequences can lack the tags named with a protein.

With “MTA, yeast two-hybrid fusion (from UniProt O82486 1-685)”, the binding entry is “binds”.

B1: FIP37, yeast two-hybrid fusion (protein, UniProt Q9ZSZ8 1-330)
chain: T1 sequence
Regarding B1, the binding result is given as “binds”.
